Data reported in article PMC9791665.
No constants are given. Whether binding was seen depends on the method and setting. Some entries that bind do so weakly or less than the wild type.

Chains of the proteins cited; added tags and fusions are not shown. Residues count along the entry.
UniProt P27540, residues 85-465: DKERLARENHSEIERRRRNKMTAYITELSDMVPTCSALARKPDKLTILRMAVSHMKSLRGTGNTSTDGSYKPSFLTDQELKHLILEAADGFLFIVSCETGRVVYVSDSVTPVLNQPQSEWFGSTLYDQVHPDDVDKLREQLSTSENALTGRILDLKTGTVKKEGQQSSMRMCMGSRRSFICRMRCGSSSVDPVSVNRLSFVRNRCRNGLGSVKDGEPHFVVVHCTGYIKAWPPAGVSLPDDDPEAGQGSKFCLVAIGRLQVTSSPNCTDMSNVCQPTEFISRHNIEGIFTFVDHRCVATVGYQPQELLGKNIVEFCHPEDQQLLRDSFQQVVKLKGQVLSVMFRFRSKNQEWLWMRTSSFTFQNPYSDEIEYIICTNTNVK
UniProt P35869, residues 28-414: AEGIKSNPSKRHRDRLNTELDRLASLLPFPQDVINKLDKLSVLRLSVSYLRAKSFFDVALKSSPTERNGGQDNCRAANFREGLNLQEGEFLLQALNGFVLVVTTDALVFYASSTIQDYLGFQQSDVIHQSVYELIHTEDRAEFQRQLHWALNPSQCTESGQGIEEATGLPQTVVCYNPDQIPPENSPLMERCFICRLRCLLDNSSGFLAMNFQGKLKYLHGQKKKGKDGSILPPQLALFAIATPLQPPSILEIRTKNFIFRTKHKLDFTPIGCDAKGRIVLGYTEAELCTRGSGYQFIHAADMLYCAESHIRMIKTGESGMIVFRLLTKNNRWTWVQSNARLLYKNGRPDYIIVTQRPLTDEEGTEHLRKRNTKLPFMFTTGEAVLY

Biological target: Human ARNT (aa 85-465) (human) (UniProt P27540)
Test: co-expression and co-purification; AHR and ARNT co-expressed in E. coli Rosetta 2 (DE3) with 20 uM beta-naphthoflavone; purified together on Ni Sepharose, then cation exchange in buffer with 20 uM beta-naphthoflavone; beta-naphthoflavone removed by size exclusion on Superdex 200 PG; stored in 20 mM Tris pH 7.5, 300 mM NaCl, 0.5 mM TCEP

## Human AHR (aa 28-414) (from UniProt P35869 28-414) (domain or fragment)
  binding: binds
